Measurements taken from article PMC12153744.
No constants are given. Whether binding was seen depends on the method and setting. In cells and extracts the contact can be indirect. Binding can be weak; no strength is given.

Amino acid sequences for entries named in this document (tags omitted). A change or cut given only in a name is not applied to a line headed by its entry.
UniProt Q03135: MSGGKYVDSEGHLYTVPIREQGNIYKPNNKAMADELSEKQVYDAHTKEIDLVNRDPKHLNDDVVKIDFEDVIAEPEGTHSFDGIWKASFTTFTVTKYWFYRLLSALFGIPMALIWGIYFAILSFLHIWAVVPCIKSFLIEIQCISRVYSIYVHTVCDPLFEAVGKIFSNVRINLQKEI
UniProt Q63HN8: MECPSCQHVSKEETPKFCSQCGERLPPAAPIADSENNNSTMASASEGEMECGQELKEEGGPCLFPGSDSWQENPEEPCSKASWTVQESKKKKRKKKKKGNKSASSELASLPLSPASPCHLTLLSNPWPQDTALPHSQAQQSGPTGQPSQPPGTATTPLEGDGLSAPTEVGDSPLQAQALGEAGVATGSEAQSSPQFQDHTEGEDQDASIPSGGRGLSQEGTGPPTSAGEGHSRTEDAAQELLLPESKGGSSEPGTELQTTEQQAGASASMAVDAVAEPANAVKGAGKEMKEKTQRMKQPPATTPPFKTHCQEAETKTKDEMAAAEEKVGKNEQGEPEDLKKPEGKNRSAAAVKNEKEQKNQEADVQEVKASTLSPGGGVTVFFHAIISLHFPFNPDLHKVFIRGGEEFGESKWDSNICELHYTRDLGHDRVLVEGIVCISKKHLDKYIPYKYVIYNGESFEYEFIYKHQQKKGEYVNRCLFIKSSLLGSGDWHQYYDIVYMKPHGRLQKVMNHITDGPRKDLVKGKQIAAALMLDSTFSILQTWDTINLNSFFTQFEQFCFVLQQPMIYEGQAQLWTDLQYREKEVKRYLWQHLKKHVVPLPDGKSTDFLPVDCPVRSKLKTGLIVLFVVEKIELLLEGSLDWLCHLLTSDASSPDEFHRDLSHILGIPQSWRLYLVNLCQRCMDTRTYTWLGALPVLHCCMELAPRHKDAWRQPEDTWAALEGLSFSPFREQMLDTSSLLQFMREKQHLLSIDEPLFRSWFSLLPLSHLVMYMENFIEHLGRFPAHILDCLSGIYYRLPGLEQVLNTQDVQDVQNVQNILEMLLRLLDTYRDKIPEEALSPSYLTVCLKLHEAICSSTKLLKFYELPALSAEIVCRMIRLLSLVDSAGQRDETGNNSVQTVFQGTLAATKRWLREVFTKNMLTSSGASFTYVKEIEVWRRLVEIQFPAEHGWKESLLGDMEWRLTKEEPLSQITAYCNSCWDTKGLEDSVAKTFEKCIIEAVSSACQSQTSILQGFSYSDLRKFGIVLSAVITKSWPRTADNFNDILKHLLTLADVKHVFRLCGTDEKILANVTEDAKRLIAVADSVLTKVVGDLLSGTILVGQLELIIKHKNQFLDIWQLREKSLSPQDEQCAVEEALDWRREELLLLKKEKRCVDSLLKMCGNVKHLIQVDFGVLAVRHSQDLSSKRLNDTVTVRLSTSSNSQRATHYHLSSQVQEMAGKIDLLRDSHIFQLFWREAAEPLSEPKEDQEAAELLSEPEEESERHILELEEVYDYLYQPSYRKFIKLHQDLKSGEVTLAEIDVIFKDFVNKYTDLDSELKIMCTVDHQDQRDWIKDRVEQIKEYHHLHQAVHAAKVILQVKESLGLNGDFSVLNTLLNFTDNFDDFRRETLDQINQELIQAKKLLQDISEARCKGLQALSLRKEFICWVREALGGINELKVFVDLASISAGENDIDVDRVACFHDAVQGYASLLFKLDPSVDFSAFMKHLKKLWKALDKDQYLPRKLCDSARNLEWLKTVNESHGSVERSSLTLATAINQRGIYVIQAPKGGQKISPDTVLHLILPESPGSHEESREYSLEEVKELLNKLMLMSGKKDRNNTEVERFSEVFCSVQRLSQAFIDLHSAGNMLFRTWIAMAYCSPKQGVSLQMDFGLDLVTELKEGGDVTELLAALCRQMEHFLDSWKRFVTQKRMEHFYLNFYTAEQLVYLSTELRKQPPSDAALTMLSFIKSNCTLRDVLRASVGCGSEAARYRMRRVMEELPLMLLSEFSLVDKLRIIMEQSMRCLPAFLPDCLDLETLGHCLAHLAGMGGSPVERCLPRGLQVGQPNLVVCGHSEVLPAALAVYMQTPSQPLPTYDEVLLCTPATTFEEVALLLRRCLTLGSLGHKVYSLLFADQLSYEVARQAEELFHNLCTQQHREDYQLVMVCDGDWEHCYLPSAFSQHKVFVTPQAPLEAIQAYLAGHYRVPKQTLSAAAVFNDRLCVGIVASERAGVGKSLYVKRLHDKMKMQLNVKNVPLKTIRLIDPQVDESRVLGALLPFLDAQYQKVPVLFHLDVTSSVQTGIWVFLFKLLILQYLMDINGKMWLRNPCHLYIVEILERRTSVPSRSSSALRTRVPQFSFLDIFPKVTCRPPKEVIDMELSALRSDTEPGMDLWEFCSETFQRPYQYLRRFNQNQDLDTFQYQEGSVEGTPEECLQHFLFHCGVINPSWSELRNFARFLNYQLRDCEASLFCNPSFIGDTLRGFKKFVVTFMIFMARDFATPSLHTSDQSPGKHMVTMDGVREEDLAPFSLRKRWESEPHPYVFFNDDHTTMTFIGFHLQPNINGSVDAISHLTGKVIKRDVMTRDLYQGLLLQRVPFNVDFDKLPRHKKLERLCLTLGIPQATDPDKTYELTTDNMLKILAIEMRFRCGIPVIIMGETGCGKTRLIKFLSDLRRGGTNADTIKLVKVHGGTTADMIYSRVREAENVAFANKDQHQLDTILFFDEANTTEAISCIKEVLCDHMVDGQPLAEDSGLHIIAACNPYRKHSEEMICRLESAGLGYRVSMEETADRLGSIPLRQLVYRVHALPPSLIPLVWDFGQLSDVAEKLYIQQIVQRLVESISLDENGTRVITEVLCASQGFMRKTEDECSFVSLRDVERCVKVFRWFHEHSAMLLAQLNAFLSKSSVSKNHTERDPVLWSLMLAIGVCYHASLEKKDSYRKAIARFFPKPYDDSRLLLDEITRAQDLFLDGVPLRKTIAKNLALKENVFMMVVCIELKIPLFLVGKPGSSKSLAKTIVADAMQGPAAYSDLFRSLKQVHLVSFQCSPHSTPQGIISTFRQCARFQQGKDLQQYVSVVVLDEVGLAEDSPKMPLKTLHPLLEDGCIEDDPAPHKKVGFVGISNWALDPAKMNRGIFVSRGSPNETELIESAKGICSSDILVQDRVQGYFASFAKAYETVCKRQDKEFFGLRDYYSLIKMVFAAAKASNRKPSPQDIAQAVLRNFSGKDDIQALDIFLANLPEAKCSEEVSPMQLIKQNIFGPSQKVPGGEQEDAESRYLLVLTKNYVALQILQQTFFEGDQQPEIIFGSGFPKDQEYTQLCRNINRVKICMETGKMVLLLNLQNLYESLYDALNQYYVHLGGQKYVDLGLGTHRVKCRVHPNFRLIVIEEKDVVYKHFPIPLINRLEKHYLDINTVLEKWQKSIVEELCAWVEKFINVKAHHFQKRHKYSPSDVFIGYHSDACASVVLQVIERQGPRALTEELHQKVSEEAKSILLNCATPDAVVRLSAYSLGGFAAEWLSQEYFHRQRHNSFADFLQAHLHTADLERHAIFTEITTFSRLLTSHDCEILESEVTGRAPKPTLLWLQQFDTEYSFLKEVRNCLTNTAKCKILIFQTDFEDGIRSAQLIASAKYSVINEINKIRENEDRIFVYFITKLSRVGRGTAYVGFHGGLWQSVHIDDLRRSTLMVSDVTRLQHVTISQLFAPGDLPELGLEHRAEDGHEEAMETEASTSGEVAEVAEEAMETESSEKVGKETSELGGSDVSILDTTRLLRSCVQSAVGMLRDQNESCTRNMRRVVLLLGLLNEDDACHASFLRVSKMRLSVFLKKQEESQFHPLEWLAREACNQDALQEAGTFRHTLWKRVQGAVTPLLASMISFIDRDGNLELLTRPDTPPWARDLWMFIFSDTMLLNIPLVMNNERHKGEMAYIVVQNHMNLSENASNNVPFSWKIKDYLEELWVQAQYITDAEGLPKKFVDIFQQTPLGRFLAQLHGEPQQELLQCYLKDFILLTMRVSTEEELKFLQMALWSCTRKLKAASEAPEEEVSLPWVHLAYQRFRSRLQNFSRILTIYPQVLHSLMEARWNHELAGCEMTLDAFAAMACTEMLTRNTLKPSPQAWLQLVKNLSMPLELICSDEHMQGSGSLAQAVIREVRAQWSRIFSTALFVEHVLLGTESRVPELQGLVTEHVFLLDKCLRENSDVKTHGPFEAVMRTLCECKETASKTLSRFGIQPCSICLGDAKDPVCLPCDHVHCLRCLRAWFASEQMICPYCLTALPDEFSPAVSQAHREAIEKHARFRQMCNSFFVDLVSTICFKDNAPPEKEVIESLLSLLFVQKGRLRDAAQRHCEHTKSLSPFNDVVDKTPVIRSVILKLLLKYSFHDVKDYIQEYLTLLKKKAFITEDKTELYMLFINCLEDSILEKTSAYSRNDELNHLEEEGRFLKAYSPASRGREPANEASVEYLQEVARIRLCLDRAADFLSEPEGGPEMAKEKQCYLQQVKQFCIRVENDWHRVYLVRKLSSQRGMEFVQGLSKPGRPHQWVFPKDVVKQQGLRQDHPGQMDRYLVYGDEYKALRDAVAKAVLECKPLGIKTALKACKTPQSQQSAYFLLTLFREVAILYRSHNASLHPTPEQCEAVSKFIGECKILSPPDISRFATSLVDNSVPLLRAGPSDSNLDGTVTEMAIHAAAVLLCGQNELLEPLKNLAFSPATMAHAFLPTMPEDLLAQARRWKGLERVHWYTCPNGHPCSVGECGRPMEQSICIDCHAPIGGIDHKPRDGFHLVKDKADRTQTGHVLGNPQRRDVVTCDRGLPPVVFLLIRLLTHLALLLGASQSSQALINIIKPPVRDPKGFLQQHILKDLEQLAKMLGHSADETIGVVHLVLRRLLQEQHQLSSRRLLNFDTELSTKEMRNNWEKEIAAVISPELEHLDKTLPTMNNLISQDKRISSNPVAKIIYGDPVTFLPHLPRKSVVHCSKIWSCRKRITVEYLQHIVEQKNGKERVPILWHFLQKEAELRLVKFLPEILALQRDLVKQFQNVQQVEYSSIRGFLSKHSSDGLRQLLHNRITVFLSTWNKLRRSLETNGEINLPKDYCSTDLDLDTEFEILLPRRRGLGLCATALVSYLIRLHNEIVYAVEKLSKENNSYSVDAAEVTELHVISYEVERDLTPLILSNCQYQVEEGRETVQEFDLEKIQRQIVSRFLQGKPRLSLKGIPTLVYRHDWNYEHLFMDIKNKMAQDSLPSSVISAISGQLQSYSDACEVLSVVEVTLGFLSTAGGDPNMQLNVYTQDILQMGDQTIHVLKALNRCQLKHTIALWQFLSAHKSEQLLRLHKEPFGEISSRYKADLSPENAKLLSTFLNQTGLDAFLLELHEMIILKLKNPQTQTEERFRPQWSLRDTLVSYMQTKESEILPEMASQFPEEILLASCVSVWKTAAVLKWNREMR

Target: HA-Cav-1, full-length wild type (UniProt Q03135)
Experiment: co-IP; HEK293T cells co-transfected with FLAG-tagged RNF213 (WT, fragments or mutants) and HA-tagged Cav-1 (WT, deletions or mutants); IP with anti-HA antibody; immunoblot; ratio of bound to input RNF213

| Substance | binding |
| --- | --- |
| RNF213 with point mutations in the putative caveolin-binding motif CBM2 (from UniProt Q63HN8) | binds |
| RNF213 with point mutations in the putative caveolin-binding motif CBM1 (from UniProt Q63HN8) | binds |
